No constants are given. Whether binding was seen depends on the method and setting. For some of these results: Binding seen in cells or lysates may run through a third protein. Some binding calls cover weakened binding; strength is not graded here.
Columns and labels:
[1] = target: Desmoplakin (Dp), endogenous (human (endogenous in NHEK)) (UniProt P15924); assay: co-IP; immunoprecipitation of endogenous Dp from NHEKs after 1 day of differentiation; RIPA buffer (500 mM NaCl, 50 mM Tris pH 7.6, 10 mM MgCl2, 1% Tx-100, 0.1% SDS, 0.5% deoxycholate); Protein A/G beads
[2] = target: Desmoplakin (Dp), endogenous (human (endogenous in NHEK)) (UniProt P15924); assay: proximity ligation; DUOLink PLA with antibody pairs on fixed NHEKs after 1 day of differentiation in high calcium; proximity 40-100 nm; with siRNA against COPS3, DSG1, DP or scramble
[3] = target: Desmoglein 1 (Dsg1), endogenous (human (endogenous in NHEK)) (UniProt Q02413); assay: as above
[4] = target: Desmoglein 1 (Dsg1) cytoplasmic tail, bait construct pSos-Dsg1 (UniProt Q02413); assay: two-hybrid; CytoTrap (Stratagene) in temperature-sensitive cdc25H S. cerevisiae; pSos bait, myristoylated pMyr target; growth on galactose at 37°C confirms interaction, 25°C permissive

The chains behind the UniProt entries cited, without tags or fusion partners. Where a name states a change or a piece, a line headed by the entry shows the natural chain unless it says otherwise. Residues count along the entry.
UniProt P15924: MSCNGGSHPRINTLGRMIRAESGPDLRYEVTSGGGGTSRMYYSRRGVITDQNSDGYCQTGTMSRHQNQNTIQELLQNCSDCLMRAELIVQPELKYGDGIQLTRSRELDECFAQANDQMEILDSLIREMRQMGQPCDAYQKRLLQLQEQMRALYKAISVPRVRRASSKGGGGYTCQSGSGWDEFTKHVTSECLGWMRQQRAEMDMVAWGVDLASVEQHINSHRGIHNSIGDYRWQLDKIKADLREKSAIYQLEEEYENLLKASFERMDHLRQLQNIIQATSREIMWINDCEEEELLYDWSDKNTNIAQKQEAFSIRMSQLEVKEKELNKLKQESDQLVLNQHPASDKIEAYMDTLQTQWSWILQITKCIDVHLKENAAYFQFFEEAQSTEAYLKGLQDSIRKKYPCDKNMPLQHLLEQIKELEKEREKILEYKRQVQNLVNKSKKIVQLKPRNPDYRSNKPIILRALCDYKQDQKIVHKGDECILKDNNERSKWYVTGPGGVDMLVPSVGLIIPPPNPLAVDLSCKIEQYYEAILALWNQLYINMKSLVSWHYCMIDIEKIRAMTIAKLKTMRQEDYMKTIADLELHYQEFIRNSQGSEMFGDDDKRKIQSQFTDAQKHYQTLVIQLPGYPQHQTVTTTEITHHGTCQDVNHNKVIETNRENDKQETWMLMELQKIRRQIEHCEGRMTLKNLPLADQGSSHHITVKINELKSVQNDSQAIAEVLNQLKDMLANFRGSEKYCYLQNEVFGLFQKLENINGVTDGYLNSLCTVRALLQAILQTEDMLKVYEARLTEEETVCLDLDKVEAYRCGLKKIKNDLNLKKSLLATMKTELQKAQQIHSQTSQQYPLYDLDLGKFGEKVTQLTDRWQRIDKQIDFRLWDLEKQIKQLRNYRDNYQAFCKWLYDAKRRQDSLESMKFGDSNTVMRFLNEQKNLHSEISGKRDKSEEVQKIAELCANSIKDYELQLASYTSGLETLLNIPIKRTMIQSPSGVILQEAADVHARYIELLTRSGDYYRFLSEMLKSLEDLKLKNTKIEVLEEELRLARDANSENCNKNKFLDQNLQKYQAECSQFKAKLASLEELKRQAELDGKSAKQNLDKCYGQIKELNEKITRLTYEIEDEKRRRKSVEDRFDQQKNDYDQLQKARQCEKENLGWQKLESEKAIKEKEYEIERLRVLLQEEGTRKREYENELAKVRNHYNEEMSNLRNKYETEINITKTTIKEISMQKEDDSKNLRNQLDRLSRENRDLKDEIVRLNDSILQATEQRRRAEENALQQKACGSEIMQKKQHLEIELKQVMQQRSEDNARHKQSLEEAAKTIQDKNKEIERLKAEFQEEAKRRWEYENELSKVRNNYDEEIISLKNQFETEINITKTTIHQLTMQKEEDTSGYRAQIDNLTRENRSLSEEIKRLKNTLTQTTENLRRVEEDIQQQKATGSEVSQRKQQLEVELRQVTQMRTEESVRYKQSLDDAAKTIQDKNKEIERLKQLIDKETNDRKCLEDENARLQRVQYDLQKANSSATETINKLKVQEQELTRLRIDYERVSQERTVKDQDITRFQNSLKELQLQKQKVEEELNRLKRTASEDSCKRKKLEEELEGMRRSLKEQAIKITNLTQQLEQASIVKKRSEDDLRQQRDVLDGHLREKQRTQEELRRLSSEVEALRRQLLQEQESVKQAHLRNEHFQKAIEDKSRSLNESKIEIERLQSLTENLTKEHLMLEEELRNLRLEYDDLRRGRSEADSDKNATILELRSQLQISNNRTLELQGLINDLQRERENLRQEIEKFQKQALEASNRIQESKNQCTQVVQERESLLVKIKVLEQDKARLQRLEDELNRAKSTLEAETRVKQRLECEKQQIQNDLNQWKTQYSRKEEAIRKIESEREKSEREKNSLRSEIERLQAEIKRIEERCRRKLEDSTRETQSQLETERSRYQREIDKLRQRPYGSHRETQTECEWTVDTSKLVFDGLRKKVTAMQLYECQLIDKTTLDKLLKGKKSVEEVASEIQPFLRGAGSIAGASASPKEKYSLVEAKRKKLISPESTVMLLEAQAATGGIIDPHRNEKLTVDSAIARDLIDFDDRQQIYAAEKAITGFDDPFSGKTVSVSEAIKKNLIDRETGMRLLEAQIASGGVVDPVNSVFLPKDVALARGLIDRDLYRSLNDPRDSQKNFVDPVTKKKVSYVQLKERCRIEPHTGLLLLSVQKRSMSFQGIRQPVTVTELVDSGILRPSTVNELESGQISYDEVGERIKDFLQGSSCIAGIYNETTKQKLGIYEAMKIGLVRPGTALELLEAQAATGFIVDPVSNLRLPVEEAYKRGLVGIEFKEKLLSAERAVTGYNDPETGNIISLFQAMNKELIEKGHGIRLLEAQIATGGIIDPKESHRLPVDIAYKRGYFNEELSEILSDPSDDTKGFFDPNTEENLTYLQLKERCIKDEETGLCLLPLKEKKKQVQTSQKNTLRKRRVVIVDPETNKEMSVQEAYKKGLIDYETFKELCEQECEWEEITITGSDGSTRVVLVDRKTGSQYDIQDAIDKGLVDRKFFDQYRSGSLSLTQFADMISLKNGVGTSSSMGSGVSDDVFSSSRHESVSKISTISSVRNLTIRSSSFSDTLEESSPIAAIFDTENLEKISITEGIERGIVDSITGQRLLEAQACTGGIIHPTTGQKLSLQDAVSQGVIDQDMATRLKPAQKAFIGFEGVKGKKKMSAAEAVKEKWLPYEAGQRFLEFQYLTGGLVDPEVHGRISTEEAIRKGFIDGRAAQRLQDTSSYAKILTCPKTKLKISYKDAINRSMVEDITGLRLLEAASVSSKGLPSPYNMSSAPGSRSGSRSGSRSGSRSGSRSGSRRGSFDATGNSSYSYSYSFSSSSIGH
UniProt Q02413: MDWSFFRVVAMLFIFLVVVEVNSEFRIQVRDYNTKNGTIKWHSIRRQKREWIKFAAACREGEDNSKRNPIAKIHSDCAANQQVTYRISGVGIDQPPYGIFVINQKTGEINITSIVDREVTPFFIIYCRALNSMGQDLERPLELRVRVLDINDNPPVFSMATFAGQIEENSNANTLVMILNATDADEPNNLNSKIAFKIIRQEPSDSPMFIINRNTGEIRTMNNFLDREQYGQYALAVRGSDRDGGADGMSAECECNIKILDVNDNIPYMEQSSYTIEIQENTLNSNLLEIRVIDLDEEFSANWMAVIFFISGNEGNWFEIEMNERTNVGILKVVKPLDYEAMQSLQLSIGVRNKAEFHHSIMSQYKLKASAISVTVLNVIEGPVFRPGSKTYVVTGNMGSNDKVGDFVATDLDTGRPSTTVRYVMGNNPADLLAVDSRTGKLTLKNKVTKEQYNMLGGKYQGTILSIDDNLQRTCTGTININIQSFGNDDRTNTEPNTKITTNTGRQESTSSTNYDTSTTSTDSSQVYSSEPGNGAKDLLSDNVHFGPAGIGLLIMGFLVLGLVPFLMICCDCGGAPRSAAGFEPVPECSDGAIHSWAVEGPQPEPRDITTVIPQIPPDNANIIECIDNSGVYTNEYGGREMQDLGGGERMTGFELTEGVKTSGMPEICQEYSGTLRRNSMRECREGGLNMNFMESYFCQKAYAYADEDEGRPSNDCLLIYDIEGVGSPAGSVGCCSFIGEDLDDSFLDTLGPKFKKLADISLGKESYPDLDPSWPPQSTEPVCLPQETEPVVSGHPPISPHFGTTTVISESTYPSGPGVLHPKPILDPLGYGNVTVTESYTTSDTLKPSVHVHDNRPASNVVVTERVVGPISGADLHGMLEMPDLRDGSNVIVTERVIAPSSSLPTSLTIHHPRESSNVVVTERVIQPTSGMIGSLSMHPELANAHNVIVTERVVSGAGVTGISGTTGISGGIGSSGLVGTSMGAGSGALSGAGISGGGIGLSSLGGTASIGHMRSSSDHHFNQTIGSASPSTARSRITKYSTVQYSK
Desmoglein 1 (Dsg1), endogenous (human (endogenous in NHEK)): residues 50-1049 of Q02413
Desmoglein 1 (Dsg1) cytoplasmic tail, bait construct pSos-Dsg1: residues 570-1049 of Q02413
UniProt Q9UNS2: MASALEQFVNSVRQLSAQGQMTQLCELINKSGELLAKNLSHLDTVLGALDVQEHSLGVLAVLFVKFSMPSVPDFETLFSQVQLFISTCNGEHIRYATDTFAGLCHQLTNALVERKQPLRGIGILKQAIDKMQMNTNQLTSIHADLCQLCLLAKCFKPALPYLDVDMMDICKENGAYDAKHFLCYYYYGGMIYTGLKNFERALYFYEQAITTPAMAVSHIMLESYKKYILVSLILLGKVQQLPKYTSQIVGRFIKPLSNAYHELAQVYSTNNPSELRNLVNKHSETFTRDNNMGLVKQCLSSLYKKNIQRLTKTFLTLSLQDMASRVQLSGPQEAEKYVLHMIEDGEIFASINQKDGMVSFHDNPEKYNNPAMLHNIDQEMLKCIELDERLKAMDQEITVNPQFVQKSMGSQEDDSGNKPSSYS

Substance	binding [1]	binding [2]	binding [3]	binding [4]
Cops3, third subunit of the COP9 signalosome (CSN), endogenous (from UniProt Q9UNS2 1-423)	binds	binds	binds	–
Cops4, fourth subunit of the COP9 signalosome (CSN), two-hybrid construct (from UniProt Q9BT78 1-406)	–	–	–	no binding

Source: publication PMC5663478
